Literature values, collected in US12590950B2, “Methods for predicting ER-mediated DNA damage” (UNIVERSITY OF MASSACHUSETTS, priority 2019, dated 2026).
Some of these results come from one statement about several compounds together.

Conditions: in vivo; cited from earlier work

CC/C(=C(\c1ccccc1)c1ccc(OCCN(C)C)cc1)c1ccccc1 [TAM, trans isomer of 1-(p-beta-dimethyaminoetho-xyphenyl)-1,2-diphenylbut-1-ene]
reduction of the incidence of breast cancer: 50-75%
